Assay results from PubChem BioAssay AID493014 (National Center for Advancing Translational Sciences (NCATS), 2011).
About 170 (0.05%) of roughly 340,000 compounds were called active. The shares of active, inactive and inconclusive entries below differ from those in the screen. Calls follow the shape of the dose curve; as a rule, active = well fitted inhibition curve with a large enough effect in the signal ratio, with a control signal flat (not every such curve was filed as active); inconclusive = small, poorly fitted or top-dose-only effect, or effect the other way, or a change in a side signal; inactive = flat fitted curve, though single readings scatter; the % refers to the signal ratio. Where the call is inconclusive, the potency comes from a doubtful curve fit.

assay: qHTS Assay to Find Inhibitors of Chronic Active B-Cell Receptor Signaling; conditions: ABC-DLBCL IkBa-CBG/CBR reporter, luminescence ratio (green luciferase fused to IkBa over red control in TMD8 lymphoma cells), 4 h; activity change, negative = inhibition: at 46.1 µM (top of the series) unless noted;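 as to activity change, negative = inhibition: plate controls were basal doxycycline-induced cells for no effect and cells given 10 µM MG132 for full effect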
How it was run: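 TMD8 ABC-DLBCL cells carrying doxycycline-inducible green luciferase fused to IkappaBalpha plus unfused red luciferase were exposed to compounds (up to 46 uM) for 4 hrs at 37C. Activity came from the overlap-corrected green/red luminescence ratio.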
Potency is read from the fitted curve at half-maximal effect.

Structure (SMILES)	activity change, negative = inhibition	Potency
Cc1ccc(S(=O)(=O)CCC(=O)c2ccc(O)cc2O)cc1	inconclusive: 6.53%	–
COc1cc2c(cc1OC)C(C)N(C(C)=O)CC2 (stereo not drawn)	inconclusive: -14.7%	–
O=C(O)CCCCCN1C(=O)C(O)=C(C(=O)/C=C/c2ccccc2)C1c1cccc([N+](=O)[O-])c1 (stereo not drawn)	inactive: 2.15%	–
CC1=CC(C#N)(C#N)C(C#N)(C#N)C(c2ccccc2)N1 (stereo not drawn)	inactive: 0.609%	–
COc1ccc(C2(C)NC(=O)NC2=O)cc1OC (stereo not drawn)	inconclusive: 0.0577%	–
O=C(Nc1ccccc1)N1CC=C(c2ccc(F)cc2)CC1	–	inconclusive: 18.4 µM [falling, partial curve]
O=C(Nc1ccccc1)[C@@H]1[C@@H]2C(=O)N(c3ccc(F)cc3)C(=O)[C@@H]2[C@H]2C=CC=NN21	–	inconclusive: 10 µM [falling, single point]
CC1(C)Cc2c(sc(NC(=O)C(=O)N3CCCCC3)c2C(=O)O)CO1	inconclusive: 4.91%	–
O=C(OCC(=O)N1CCN(C(=O)c2ccco2)CC1)c1c(Cl)cccc1Cl	inconclusive: 4.68%	–
O=C1NC(Cc2ccccc2)c2nc3cc(Cl)ccc3c(=O)n2-c2ccccc21 (stereo not drawn)	inactive: 0.859%	–
COc1ccc2oc(C(=O)OCC(=O)N3CC(C)CC(C)C3)c(C)c2c1 (stereo not drawn)	inconclusive: 4.83%	–
COC(=O)[C@@H]1CCCN1C(=O)CCc1nnc(CCC2CCCCC2)o1	inconclusive: 16.5%	–
O=c1cc(-c2c(F)c(F)c(F)c(F)c2F)oc2c(F)c(F)c(F)c(F)c12	inconclusive: -1.9%	–
Nc1nonc1-n1nnc(C(=O)N/N=C/c2ccoc2)c1CSc1ccc(Cl)cc1	inactive: 1.57%	–
Cc1ccc2c(c1)c1c3n2CCN(C(=O)CN2CCN(C)CC2)C3CCC1 (stereo not drawn)	inconclusive: -1.59%	–
N#CC1CCCc2c1[nH]c1ccc([N+](=O)[O-])cc21 (stereo not drawn)	inconclusive: 1.16%	–
CCC(C)NC(=S)Nc1ccc(C(=O)OC)cc1 (stereo not drawn)	inconclusive: -29.3%	–
Cn1c(SCC(=O)Nc2ccccc2F)nnc1-c1cc2ccccc2o1	inconclusive: -0.251%	–
COC(=O)c1cc(-c2ccc(C)cc2)n[nH]1	inconclusive: 14.1%	–
COc1ccc(-c2nc(S(=O)(=O)c3ccccc3)c(N3CCOCC3)o2)cc1	inconclusive: 12.2%	–
CCCN(CCC)CC(O)Cn1cc(/C=C/C(=O)c2ccccc2)c2ccccc21 (stereo not drawn)	–	inconclusive: 35.5 µM [falling, single point]
NC(=S)COc1ccccc1	inconclusive: 5.33%	–
O=C(O)c1cccc(Nc2c3ccccc3nc3ccccc23)c1	inconclusive: 2.08%	–
CC(C)(C)C1CCC2(CC1)C(C#N)=C(SCC(=O)NC1CCCCC1)NC(=O)C2C#N (stereo not drawn)	inconclusive: -1.43%	–
CC(O)CNCCOc1ccccc1-c1ccccc1 (stereo not drawn)	inconclusive: -15%	–
N#Cc1c(-c2ccco2)nc(SCC(=O)Nc2cccc(Cl)c2)[nH]c1=O	inactive: 14.4%	–
Cc1ccc2nc(N3CCN(C(=O)c4ccc(F)cc4)CC3)c(C#N)cc2c1	inactive: 4.76%	–

Structure (SMILES)	activity change, negative = inhibition	Potency
COc1ccc(-c2[nH]ncc2[C@@H]2C[C@H]3CN(Cc4ccccc4C)C(=O)[C@]34CCCN24)cc1	inactive: 0.984%	–
Cc1c(C2Nc3ccccc3NC3=C2C(=O)CC(C)(C)C3)cnn1C (stereo not drawn)	inconclusive: 0.332%	–
CCCCCN1CC(=O)N2Cc3[nH]c4ccccc4c3C[C@H]2C1=O	inactive: -6.24%	–
O=C(c1ccco1)N1N=C(c2ccncc2)CC1(O)C(F)(F)F (stereo not drawn)	inactive: -14.8%	–
Cc1cccc(C(C)C)c1NC(=O)COC(=O)CNS(=O)(=O)c1ccccc1	inactive: -2.85%	–
CCOc1ccc(N2C(=O)NC(Cc3c[nH]c4ccccc34)C2=O)cc1 (stereo not drawn)	inconclusive: 2.47%	–
O=C(O)c1cc(N/N=C/c2ccc(N3CCOCC3)cc2)ccc1Cl	–	inconclusive: 35.5 µM [rising, single point]
O=C(c1ccc([N+](=O)[O-])cc1)N1CCN(Cc2ccccc2[N+](=O)[O-])CC1	inconclusive: -13.7%	–
Clc1ccc(N/N=C/c2cccs2)nn1	inconclusive: 8.48%	–
COc1ccccc1C(=O)N/N=C/c1ccc2c(c1)OCO2	–	inconclusive: 22.4 µM [falling, partial curve]
CCN(CC)CCCC(C)NC(=O)c1c(NC(=O)c2ccccc2)sc2c1CCCC2 (stereo not drawn)	inconclusive: -0.21%	–
COc1ccc(Oc2ccc(/C=N/NC(=O)c3cccnc3)cc2[N+](=O)[O-])cc1	inconclusive: 1.09%	–
Cc1ccc(CNC(=O)Cn2cnc3c(NCc4ccccc4)ncnc32)o1	inactive: -12.2%	–
CN(C)CCCN1C(=O)c2cccc3c([N+](=O)[O-])ccc(c23)C1=O	inconclusive: 10.2%	–
CCc1cccc(C)c1NC(=O)N(C)C1CCCCC1	inconclusive: 7.49%	–
COC(=O)c1cc2ccsc2n1CC(=O)N1CCCc2ccccc21	inconclusive: -0.881%	–
Fc1cc(NC(=S)NCc2ccc(CNC(=S)Nc3ccc(Cl)c(F)c3)cc2)ccc1Cl	–	inconclusive: 11.2 µM [rising, partial curve, poor fit]
O=C(O)CC1=C(Nc2ccccc2)C(=O)N(c2ccccc2)C1c1ccc(Cl)cc1 (stereo not drawn)	–	inconclusive: 35.5 µM [rising, single point]
N/C(=N\OC(=O)c1ccc(Cl)cc1[N+](=O)[O-])c1cccnc1	inconclusive: 22.5%	–
Cc1ccc2nc(N3C(=O)C(O)=C(C(=O)c4cc5ccccc5o4)C3c3cccs3)sc2c1 (stereo not drawn)	–	inconclusive: 3.98 µM [falling, partial curve, poor fit]
Cc1ccc(NC(=S)NNC(=O)CCn2cc(C)cn2)cc1	inactive: -10.2%	–
N=c1c(C(=O)NCc2ccc3c(c2)OCO3)cc2c(=O)n3ccccc3nc2n1Cc1cccnc1	inactive: -1.41%	–
Cc1ccc([N+](=O)[O-])cc1S(=O)(=O)Nc1ccc(-c2ccc(N3CCOCC3)nn2)cc1	inconclusive: 0.383%	–
COc1ccc(C(CNC(=O)COc2c(C)cc(C)cc2C)N2CCOCC2)cc1 (stereo not drawn)	inconclusive: -9.47%	–
COc1cc(-c2ccc3oc(-c4cccc(C)c4)c(C#CC4(O)CCCCC4)c3c2)cc(OC)c1OC	inconclusive: -0.324%	–
Cc1[nH]n(C(N)=S)c(=O)c1N=Nc1ccc(Br)cc1	inconclusive: 14.4%	–

A different layout for 3 compounds above:
Structure (SMILES) | activity change, negative = inhibition | Potency
CCOc1ccc(N2C(=O)NC(Cc3c[nH]c4ccccc34)C2=O)cc1 (stereo not drawn) | inconclusive: 2.47% | –
O=C(O)c1cc(N/N=C/c2ccc(N3CCOCC3)cc2)ccc1Cl | – | inconclusive: 35.5 µM [rising, single point]
O=C(c1ccc([N+](=O)[O-])cc1)N1CCN(Cc2ccccc2[N+](=O)[O-])CC1 | inconclusive: -13.7% | –
